PMC8881269
Results are given in words; binding and its absence hold for the method and conditions named. In cells and extracts the contact can be indirect. Some binding calls cover weakened binding; strength is not graded here.

Protein sequences, listed by entry. Tags and fused reporters are not part of them.
UniProt Q96RU2: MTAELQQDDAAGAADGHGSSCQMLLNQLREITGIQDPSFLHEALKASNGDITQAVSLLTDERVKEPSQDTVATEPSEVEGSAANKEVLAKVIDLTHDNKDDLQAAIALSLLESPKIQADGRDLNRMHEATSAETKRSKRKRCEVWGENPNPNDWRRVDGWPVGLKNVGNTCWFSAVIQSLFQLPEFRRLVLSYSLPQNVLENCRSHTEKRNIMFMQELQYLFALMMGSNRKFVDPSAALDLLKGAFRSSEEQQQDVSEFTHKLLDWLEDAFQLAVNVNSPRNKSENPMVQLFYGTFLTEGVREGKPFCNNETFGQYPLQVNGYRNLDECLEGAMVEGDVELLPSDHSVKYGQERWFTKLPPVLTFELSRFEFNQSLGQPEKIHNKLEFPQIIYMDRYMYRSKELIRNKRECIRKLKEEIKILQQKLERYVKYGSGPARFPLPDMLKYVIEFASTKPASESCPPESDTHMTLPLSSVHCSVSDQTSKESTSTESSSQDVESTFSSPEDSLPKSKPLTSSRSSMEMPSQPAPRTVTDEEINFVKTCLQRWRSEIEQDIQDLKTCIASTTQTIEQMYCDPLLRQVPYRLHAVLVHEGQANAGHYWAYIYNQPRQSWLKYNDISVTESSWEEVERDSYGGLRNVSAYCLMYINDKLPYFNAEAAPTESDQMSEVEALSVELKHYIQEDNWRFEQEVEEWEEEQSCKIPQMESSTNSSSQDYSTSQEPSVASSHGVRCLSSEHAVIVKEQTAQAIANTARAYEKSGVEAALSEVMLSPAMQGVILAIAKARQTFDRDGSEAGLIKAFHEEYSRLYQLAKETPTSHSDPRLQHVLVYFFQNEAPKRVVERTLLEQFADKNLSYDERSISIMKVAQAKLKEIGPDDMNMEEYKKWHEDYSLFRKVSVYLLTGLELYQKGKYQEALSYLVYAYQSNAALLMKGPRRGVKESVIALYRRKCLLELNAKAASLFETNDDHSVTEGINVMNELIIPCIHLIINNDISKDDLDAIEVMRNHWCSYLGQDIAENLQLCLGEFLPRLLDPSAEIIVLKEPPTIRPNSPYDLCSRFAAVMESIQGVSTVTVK
UniProt Q14980: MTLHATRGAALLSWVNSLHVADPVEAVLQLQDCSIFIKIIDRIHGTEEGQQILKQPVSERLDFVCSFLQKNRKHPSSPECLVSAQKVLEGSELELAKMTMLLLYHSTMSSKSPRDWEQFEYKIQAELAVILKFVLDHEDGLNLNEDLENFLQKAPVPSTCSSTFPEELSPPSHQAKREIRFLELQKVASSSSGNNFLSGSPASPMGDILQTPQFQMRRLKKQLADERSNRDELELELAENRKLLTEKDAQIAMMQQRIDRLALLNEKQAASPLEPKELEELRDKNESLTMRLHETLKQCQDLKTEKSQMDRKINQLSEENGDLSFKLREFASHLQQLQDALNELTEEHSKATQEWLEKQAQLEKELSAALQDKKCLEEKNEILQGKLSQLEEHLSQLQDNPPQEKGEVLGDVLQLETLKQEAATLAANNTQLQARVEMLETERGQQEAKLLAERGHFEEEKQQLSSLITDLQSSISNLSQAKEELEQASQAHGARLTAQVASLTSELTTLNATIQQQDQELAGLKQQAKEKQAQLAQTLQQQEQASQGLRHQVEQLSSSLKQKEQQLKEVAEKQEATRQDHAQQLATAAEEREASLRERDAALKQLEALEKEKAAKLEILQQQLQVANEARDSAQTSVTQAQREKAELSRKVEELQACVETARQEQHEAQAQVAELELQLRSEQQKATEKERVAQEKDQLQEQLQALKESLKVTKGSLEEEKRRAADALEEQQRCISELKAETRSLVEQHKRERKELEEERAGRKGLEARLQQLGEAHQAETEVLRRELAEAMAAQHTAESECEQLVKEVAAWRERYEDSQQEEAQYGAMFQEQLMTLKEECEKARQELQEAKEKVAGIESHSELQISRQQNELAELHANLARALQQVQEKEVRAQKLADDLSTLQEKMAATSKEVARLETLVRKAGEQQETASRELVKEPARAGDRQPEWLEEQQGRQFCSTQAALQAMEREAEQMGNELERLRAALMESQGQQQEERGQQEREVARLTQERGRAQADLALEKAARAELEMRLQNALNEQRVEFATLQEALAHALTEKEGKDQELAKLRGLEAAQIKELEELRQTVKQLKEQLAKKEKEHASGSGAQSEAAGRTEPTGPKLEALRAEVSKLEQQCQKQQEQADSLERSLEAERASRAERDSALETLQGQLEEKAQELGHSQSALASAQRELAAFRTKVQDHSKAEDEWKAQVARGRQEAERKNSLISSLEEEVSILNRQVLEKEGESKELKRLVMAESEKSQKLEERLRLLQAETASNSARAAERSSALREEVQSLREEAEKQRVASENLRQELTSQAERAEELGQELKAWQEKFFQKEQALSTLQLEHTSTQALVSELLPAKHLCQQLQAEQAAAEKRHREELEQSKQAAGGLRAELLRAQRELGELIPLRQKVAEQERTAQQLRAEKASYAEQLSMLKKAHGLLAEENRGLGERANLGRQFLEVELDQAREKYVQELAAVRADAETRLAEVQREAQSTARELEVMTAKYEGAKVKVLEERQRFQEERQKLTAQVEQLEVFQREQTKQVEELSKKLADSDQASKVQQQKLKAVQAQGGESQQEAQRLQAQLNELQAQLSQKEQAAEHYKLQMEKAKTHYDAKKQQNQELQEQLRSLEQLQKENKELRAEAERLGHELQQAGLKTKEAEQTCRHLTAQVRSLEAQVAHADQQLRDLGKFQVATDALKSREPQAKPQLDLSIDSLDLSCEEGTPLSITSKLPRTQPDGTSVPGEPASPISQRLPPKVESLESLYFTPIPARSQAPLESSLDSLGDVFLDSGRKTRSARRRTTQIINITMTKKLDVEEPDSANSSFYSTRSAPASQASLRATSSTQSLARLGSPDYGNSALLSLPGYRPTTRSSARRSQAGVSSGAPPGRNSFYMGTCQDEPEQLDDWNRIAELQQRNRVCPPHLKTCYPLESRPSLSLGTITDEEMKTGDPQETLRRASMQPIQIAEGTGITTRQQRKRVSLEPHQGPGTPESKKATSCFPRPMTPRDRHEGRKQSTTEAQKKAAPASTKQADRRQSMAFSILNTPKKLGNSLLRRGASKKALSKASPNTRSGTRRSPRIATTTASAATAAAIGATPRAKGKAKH

Biological target: Ubiquitin Specific Peptidase 28 (human (endogenous in HCT116)) (UniProt Q96RU2)
Assay: co-IP; anti-USP28 antibody on magnetic beads; lysates of HCT116 cells untreated, treated with DCD or with aphidicolin; overnight at 4 °C; washes with 500 mM NaCl, 0.5% Triton X-100; immunoblot for USP28 and NuMA1

- binding: binds
Substance: nuclear mitotic apparatus protein 1 (from UniProt Q14980 1-2115)
